In PMC10902461:
No constants are given. Whether binding was seen depends on the method and setting. Binding seen in cells or lysates may run through a third protein. Some results given as binding are weak or reduced against the parent protein; the word gives no strength.

Target: T1, NOX4 (human (endogenous in HEK293)) (UniProt Q9NPH5)
T1 sequence: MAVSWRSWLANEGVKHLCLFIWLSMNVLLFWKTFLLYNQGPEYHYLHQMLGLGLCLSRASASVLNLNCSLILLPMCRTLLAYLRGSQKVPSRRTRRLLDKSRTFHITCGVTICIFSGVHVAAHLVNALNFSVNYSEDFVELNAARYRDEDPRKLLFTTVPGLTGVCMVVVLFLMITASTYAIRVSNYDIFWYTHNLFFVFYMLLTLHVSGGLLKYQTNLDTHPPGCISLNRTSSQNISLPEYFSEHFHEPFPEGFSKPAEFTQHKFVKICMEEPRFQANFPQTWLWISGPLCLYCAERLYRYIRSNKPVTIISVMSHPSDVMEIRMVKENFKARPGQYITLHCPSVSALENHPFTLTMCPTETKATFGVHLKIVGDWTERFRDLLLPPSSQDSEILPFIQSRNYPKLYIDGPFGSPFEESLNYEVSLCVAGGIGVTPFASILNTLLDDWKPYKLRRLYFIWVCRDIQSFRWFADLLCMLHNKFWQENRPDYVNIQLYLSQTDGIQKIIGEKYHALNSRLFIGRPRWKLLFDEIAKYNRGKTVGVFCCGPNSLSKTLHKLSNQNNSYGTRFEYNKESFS
Experiment: co-IP; endogenous NOX4 immunoprecipitated with anti-NOX4 antibody (ab133303) cross linked to protein A magnetic beads from 0.5-1.0 mg lysate of HEK293 cells transfected with human ANGPTL2; 2 h at 4°C; lysis buffer 100 mM NaCl, 50 mM Tris pH 7.5, 50 mM NaF, 1% NP-40; three washes; immunoblot

binding: binds
B1: Angiopoietin-like 2 (ANGPTL2), human (protein, UniProt Q9UKU9 23-493)
chain: QEDGFEGTEEGSPREFIYLNRYKRAGESQDKCTYTFIVPQQRVTGAICVNSKEPEVLLENRVHKQELELLNNELLKQKRQIETLQQLVEVDGGIVSEVKLLRKESRNMNSRVTQLYMQLLHEIIRKRDNALELSQLENRILNQTADMLQLASKYKDLEHKYQHLATLAHNQSEIIAQLEEHCQRVPSARPVPQPPPAAPPRVYQPPTYNRIINQISTNEIQSDQNLKVLPPPLPTMPTLTSLPSSTDKPSGPWRDCLQALEDGHDTSSIYLVKPENTNRLMQVWCDQRHDPGGWTVIQRRLDGSVNFFRNWETYKQGFGNIDGEYWLGLENIYWLTNQGNYKLLVTMEDWSGRKVFAEYASFRLEPESEYYKLRLGRYHGNAGDSFTWHNGKQFTTLDRDHDVYTGNCAHYQKGGWWYNACAHSNLNGVWYRGGHYRSRYQDGVYWAEFRGGSYSLKKVVMMIRPNPNTFH
